The values that follow come from PMC9329997.

Amino acid sequences for entries named in this document (tags omitted).
UniProt Q15910: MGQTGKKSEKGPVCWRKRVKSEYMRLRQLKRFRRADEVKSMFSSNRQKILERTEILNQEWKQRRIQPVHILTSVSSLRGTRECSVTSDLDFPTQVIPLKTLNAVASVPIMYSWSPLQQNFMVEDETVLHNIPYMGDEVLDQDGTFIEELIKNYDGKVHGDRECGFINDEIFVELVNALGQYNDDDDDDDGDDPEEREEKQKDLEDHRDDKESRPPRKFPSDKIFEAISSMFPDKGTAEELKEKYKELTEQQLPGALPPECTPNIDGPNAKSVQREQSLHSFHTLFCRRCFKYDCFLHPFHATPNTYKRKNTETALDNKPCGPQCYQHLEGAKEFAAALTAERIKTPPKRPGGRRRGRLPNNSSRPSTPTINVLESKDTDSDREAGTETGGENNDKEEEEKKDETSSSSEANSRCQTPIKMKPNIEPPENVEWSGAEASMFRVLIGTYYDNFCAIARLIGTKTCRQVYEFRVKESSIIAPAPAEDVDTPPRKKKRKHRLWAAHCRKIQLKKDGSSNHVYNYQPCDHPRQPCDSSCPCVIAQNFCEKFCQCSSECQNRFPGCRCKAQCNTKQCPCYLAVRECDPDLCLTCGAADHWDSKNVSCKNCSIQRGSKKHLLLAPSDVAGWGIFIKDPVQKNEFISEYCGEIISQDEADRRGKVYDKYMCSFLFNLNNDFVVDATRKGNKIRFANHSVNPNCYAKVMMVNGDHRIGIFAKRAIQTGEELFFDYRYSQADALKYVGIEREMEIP
UniProt Q92769: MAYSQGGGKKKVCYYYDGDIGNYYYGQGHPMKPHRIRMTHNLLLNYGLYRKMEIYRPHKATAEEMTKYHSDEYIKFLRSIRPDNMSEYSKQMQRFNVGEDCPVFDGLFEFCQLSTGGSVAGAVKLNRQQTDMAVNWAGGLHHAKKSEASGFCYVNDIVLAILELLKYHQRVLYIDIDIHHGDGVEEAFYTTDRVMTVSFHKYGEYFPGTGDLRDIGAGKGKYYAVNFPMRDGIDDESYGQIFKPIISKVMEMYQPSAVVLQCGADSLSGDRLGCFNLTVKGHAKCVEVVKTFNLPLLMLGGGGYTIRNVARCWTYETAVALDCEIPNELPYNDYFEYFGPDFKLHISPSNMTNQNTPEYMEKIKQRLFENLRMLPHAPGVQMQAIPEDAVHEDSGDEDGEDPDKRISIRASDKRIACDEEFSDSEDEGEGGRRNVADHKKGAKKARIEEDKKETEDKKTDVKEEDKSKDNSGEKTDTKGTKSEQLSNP

The experiment concerns the target enhancer of zeste homologue 2 (EZH2), overexpression plasmid (UniProt Q15910). Kind of experiment: co-IP; MDA-MB-231 cells individually transfected with control, HDAC2 or EZH2 plasmid, lysed after 48 h; antibody on magnetic beads, lysate incubated at 4 °C overnight; eluate blotted for EZH2 and HDAC2.

Results are given in words; binding and its absence hold for the method and conditions named. Binding seen in cells or lysates may run through a third protein. Some entries that bind do so weakly or less than the wild type.

Regarding “histone deacetylase 2 (HDAC2), overexpression plasmid (from UniProt Q92769 1-488)”, the binding entry is given as “binds”.
